Data taken from US20190256582A1.
These are yes or no findings as the source states them, for the method shown. For some assays here: Binding can be weak; no strength is given.

How the values were obtained:
[1] = biological target: ZIKV NS1 protein (Zika virus (ZIKV)); assay: BLI (Octet), ZIKV NS1 immobilised on APS sensor
[2] = biological target: DENV3 NS1 protein (dengue virus serotype 3 (DENV3)); assay: ELISA
[3] = biological target: ZIKV NS1 protein (Zika virus (ZIKV)); assay: ELISA
[4] = biological target: DENV1 NS1 protein (dengue virus serotype 1 (DENV1)); assay: ELISA
[5] = biological target: DENV4 NS1 protein (dengue virus serotype 4 (DENV4)); assay: ELISA
[6] = biological target: DENV2 NS1 protein (dengue virus serotype 2 (DENV2)); assay: ELISA
[7] = biological target: DENV4 E protein (dengue virus serotype 4 (DENV4)); assay: ELISA
[8] = biological target: DENV2 E protein (dengue virus serotype 2 (DENV2)); assay: ELISA
[9] = biological target: DENV3 E protein (dengue virus serotype 3 (DENV3)); assay: ELISA
[10] = biological target: DENV1 E protein (dengue virus serotype 1 (DENV1)); assay: ELISA

B1: ZKA35 (antibody, V domains shown)
VH: QVQLQESGPGLVKPSQTLSLTCTVSGGSISTGGYYWSWIRQHPGKGLEWIGYIYYSGNTYYNPSLKSRVTISVDTSKKQFSLKLSSVTAADTAVYYCAKGGGRERPFDYWGQGTLVTVSS
VL: QSVLTQPPSASGTPGQRVTISCSGSSSNIGRNYVDWYQQLPGTAPKLLIYRNNQRPSGVPERFSGSKSGTSASLAISGLRSEDEADYYCVAWDDSRSGFVVFGGGTKVTVL
How did the binding [1] turn out when B1 was run?
Its binding is “binds”.

What about the binding [2] of the same binder?
The binding was “no binding”.

And the binding [3]?
The binding was “binds”.

And the binding [4]?
Its binding is “no binding”.

And the binding [5]?
Its binding is “no binding”.

What about the binding [6] of the same binder?
The binding was “no binding”.

B2: ZKA185 (antibody, V domains shown)
VH: EVQLVQSGAEVKKPGESLRISCKGSGYSFTSYWITWVRQMPGKGLEWMAKFDPSDSQTNYSPSFQGHVTISVDKSISTAYLQWSSLKASDTAMYYCARRYCSSSSCYVDNWGQGTLVTIFS
VL: SYELTQPPSVSVSPGQTARITCSGDALPNKFAYWYRQKSGQAPVLVIYEDNKRPSGIPERFSGSSSGTMATLTISGAQVEDEADYHCYSTDSSSNPLGVFGGGTKLTVL
Which results are given for B2?
binding [7]: no binding; binding [8]: no binding; binding [9]: no binding; binding [10]: no binding

B3: ZKA230 (antibody, V domains shown)
VH: QVQLQESGPGLVKPSETLSLTCAVSGGSISSDYWSWIRQPPGKGLEWIGYIYYSGSTNYNPSLKSRVTISVDTSKNHFSLKLNSVTAADTAVYYCARRRKYDSLWGSFAFDIWGQGTMVTVSS
VL: QSVLTQPPSASGTPGQRVTISCSGSSSNIGGNYVYWYQQLPGTAPKLLICINDHRPSGVPDRFSGSKSGTSASLAISGLQSEDEADYYCATWDDSLGGLVFGGGTKLTVL
Which binding [7] does the source give for B3 here?
The binding was “no binding”.

What about the binding [8] of the same binder?
The binding was “no binding”.

What about the binding [9] of the same binder?
Its binding is “no binding”.

What about the binding [10] of the same binder?
The binding was “no binding”.
